Data published in the supplement of paper PMC12067093, “Discovery and optimisation of a covalent ligand for TRIM25 and its application to targeted protein ubiquitination” (Chemical Science, 2025).
This is one part of the list.

Amino acid sequences for entries named in this document (tags omitted). A change or cut given only in a name is not applied to a line headed by its entry.
UniProt Q16610: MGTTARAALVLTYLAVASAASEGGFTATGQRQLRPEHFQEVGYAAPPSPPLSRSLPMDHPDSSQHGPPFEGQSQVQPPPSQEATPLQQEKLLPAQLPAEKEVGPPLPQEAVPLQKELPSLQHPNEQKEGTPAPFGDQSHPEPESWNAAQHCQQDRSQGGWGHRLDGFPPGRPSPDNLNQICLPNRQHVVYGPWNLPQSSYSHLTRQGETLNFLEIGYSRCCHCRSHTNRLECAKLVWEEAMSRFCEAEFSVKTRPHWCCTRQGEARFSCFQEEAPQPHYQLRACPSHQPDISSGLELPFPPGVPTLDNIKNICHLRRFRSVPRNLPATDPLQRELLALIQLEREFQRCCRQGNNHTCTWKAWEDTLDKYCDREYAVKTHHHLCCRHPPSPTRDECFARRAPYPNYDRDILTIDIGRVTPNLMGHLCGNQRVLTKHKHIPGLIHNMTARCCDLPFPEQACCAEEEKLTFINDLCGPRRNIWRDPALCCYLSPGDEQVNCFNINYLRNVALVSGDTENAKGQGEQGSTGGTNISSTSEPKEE
UniProt Q12805: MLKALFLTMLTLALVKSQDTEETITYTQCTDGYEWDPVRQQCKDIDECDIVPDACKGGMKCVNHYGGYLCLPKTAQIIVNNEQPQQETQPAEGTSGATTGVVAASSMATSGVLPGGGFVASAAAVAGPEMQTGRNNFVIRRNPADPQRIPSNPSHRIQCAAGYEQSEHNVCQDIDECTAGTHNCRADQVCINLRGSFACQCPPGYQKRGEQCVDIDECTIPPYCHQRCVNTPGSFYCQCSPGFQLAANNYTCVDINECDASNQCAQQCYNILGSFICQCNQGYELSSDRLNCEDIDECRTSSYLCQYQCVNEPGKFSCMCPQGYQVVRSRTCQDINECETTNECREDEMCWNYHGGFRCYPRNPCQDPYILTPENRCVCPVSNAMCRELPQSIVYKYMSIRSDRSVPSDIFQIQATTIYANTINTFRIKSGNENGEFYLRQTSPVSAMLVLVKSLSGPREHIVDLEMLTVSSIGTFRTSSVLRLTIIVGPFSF
UniProt P05198, whole entry, looked up: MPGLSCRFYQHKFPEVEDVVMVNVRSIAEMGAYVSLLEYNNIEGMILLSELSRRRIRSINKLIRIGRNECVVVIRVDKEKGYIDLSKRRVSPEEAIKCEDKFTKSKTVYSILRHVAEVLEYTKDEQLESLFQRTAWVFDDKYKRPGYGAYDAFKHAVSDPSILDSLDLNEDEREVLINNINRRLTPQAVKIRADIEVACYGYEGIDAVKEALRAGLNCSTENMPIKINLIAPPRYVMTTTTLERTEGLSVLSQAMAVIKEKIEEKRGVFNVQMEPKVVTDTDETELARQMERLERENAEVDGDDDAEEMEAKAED
UniProt P55884, whole entry, looked up: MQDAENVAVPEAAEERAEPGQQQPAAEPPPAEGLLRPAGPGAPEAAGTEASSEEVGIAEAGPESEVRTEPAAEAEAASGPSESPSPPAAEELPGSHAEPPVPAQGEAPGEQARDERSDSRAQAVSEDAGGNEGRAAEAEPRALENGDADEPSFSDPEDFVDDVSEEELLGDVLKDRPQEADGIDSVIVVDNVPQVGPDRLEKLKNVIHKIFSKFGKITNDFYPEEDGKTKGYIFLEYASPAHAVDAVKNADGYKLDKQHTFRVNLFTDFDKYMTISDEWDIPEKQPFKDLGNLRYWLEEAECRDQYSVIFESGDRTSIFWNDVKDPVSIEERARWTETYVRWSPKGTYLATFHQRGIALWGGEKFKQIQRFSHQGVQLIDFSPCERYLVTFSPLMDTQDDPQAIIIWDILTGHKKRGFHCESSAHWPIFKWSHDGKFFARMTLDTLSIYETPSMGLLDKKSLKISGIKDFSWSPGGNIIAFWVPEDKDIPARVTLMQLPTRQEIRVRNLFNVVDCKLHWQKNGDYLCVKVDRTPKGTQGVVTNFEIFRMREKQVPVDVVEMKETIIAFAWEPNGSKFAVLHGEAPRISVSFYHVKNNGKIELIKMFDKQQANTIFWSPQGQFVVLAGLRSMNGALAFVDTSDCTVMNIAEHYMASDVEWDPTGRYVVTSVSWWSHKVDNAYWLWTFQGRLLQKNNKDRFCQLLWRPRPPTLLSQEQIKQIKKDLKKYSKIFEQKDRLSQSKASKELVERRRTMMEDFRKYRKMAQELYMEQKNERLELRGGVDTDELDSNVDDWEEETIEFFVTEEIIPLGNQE
UniProt Q5VYK3, whole entry, looked up: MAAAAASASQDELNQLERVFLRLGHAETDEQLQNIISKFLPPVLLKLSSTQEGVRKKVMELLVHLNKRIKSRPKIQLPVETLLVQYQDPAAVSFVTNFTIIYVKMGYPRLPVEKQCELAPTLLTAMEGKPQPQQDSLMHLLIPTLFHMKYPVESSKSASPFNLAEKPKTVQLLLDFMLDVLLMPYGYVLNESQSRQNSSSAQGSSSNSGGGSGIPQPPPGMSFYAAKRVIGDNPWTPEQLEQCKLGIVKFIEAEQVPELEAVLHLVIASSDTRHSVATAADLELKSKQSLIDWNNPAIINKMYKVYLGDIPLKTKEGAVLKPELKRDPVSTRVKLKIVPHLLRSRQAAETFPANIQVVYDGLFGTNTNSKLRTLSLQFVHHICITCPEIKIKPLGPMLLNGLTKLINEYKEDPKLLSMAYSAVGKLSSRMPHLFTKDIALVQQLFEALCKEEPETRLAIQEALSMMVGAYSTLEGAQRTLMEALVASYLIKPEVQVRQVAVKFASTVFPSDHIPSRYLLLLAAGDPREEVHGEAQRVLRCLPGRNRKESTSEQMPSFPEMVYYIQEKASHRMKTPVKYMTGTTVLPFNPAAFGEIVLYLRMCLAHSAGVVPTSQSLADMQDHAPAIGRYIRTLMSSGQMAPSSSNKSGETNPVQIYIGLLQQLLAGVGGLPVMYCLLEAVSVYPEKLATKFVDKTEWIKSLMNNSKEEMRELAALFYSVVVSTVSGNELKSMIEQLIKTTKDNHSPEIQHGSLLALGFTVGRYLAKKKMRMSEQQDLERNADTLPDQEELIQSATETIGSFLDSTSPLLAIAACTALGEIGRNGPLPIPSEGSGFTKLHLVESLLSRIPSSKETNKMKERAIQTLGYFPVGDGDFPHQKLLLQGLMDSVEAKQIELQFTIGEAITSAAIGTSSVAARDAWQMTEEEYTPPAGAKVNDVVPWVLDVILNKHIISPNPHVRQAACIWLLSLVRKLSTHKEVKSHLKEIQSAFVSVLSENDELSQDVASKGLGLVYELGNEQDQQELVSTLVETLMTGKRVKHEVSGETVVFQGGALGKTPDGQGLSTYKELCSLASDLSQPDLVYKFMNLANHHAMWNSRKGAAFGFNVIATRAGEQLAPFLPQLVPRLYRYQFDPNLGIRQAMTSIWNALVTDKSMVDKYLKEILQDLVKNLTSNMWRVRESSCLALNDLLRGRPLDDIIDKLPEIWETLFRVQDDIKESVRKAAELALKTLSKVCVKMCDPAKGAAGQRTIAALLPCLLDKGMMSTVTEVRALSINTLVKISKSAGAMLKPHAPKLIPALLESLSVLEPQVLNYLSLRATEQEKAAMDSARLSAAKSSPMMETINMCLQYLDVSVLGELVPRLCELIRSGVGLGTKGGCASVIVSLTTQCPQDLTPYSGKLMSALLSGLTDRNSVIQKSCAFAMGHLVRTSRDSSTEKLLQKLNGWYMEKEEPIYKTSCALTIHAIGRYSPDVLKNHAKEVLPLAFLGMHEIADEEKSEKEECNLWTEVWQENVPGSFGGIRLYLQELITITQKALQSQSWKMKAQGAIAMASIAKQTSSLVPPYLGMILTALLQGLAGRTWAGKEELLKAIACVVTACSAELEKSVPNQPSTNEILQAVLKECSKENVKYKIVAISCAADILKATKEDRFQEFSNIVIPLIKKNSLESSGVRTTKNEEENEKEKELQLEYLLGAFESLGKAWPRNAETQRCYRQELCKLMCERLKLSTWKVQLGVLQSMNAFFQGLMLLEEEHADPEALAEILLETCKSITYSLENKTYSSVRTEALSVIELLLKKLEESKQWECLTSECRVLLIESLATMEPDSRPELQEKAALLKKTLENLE
UniProt P20042, whole entry, looked up: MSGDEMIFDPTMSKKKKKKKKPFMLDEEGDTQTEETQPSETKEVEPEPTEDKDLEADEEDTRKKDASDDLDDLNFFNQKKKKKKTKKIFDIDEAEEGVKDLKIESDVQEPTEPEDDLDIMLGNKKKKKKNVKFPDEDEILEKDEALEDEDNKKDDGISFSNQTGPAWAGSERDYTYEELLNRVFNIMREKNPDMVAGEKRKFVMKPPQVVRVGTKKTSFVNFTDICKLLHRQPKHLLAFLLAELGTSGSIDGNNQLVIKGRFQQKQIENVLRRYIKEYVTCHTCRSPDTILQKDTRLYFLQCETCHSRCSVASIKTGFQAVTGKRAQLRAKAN
UniProt Q8N3D4: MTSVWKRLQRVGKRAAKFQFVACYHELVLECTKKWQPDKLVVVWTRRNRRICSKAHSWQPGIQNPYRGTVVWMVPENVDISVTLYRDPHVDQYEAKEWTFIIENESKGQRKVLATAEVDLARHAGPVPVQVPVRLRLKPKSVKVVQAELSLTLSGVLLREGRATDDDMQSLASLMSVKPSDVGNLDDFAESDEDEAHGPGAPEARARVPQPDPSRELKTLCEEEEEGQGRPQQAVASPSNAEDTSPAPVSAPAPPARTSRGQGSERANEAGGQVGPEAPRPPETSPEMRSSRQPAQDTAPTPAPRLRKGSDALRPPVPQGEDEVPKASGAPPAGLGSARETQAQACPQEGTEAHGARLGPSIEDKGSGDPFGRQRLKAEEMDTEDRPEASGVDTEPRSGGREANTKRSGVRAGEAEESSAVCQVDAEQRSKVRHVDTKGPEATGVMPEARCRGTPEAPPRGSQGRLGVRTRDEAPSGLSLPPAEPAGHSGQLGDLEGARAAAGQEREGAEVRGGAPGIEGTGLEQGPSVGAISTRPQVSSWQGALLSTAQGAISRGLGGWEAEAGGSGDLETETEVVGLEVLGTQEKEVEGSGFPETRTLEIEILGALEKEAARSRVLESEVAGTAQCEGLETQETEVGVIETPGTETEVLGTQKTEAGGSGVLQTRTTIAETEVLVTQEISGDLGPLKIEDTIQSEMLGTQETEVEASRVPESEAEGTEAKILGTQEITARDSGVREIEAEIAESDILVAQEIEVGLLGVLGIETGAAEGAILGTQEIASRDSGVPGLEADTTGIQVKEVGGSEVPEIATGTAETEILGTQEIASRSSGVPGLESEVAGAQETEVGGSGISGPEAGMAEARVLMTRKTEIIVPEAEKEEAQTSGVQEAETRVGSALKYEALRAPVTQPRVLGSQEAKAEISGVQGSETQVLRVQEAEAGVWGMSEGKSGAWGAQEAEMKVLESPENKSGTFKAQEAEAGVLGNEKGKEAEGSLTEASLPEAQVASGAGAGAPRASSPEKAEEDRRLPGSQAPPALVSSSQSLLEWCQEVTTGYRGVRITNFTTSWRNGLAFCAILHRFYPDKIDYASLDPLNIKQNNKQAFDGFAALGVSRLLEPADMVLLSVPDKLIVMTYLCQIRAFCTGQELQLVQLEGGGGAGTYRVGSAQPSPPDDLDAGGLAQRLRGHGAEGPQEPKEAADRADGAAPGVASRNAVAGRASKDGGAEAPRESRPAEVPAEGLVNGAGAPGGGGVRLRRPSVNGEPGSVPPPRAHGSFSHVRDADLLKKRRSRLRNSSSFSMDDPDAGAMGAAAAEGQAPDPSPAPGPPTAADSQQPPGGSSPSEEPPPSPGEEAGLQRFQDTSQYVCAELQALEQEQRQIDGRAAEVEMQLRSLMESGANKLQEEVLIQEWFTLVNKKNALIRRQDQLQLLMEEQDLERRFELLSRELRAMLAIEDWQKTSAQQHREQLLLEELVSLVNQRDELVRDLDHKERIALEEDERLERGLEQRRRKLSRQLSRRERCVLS
UniProt Q13011: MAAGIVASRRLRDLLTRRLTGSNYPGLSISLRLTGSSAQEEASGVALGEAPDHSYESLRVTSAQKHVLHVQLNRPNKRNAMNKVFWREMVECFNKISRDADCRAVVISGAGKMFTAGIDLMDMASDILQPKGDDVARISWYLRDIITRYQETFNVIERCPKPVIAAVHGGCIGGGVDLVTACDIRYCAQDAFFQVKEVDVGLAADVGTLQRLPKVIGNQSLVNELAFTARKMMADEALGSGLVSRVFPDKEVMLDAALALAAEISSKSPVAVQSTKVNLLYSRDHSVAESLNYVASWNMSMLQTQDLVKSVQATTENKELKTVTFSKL
UniProt Q9UHF1: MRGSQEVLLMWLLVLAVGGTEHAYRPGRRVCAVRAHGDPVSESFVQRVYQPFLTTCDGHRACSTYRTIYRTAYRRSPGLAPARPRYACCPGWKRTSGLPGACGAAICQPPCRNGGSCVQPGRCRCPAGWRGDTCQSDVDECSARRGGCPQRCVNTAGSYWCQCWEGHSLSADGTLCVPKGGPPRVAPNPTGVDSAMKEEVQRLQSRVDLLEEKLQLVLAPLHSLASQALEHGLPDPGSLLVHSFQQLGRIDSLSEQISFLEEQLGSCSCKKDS
UniProt O60739, whole entry: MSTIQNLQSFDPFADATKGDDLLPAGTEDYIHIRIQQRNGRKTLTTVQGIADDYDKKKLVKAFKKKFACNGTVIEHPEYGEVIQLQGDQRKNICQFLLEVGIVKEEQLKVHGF

Compound: CC1Cc2ccccc2N1C(=O)C1CCCN(C1)C(=O)CCl (mixture of isomers) [TRIM25 ligand 11 (diastereomer mixture)]
Test: probe-labelled cysteine peptide fold change vs DMSO (competition) (log2 fold change); higher = less target engagement (more negative = stronger competition)
Details: THP-1, incubation time: 4 h
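Further: competitive chemoproteomic profiling in live THP-1 cells with an iodoacetamide desthiobiotin (IA-DTB) probe, comparing probe-labelled peptide intensities in compound-treated cells against DMSO-treated controls.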

“ECM1_Q16610_450_CCDLPFPEQACCAEEEK (UniProt Q16610)” was tested, and the “probe-labelled cysteine peptide fold change” value (10 µM) was -0.183 and the “probe-labelled cysteine peptide fold change” value (50 µM) was 0.186.
With “ECI1_P42126_173_YCIGLNETQLGIIAPFWLK (UniProt P42126)” the “probe-labelled cysteine peptide fold change” value (10 µM) was 0.00559 and the “probe-labelled cysteine peptide fold change” value (50 µM) was -0.0708.
For “EFEMP1_Q12805_377_CVCPVSNAMCR (UniProt Q12805)”, the “probe-labelled cysteine peptide fold change” value (10 µM) was 0.364 and the “probe-labelled cysteine peptide fold change” value (50 µM) was 0.167.
With “EIF2S1_P05198_70_NECVVVIR (UniProt P05198)” the “probe-labelled cysteine peptide fold change” value (10 µM) was 0.0924 and the “probe-labelled cysteine peptide fold change” value (50 µM) was 0.24.
For “EIF2B3_Q9NR50_300_CYVHIMK (UniProt Q9NR50)”, the “probe-labelled cysteine peptide fold change” value (10 µM) was -0.0123 and the “probe-labelled cysteine peptide fold change” value (50 µM) was 0.0363.
“EEF1A1_P68104_234_DGNASGTTLLEALDCILPPTRPTDK (UniProt P68104)” was tested, and the “probe-labelled cysteine peptide fold change” value (10 µM) was 0.0408 and the “probe-labelled cysteine peptide fold change” value (50 µM) was 0.0256.
In the case of “EIF3B_P55884_302_YWLEEAECRDQYSVIFESGDR (UniProt P55884)”, the “probe-labelled cysteine peptide fold change” value (10 µM) is reported as 0.054 and the “probe-labelled cysteine peptide fold change” value (50 µM) is reported as 0.0705.
For “EIF3B_P55884_302_YWLEEAECR (UniProt P55884)”, the “probe-labelled cysteine peptide fold change” value (10 µM) was 0.292 and the “probe-labelled cysteine peptide fold change” value (50 µM) was 0.137.
With “ECPAS_Q5VYK3_386_TLSLQFVHHICITCPEIK (UniProt Q5VYK3)” the “probe-labelled cysteine peptide fold change” value (10 µM) was -0.0502 and the “probe-labelled cysteine peptide fold change” value (50 µM) was 0.0579.
“EIF2S2_P20042_309_CSVASIK (UniProt P20042)” was tested, and the “probe-labelled cysteine peptide fold change” value (10 µM) was 0.0397 and the “probe-labelled cysteine peptide fold change” value (50 µM) was 0.0388.
With “EIF2B5_Q13144_335_WVYPLTPEANFTDSTTQSCTHSR (UniProt Q13144)” the “probe-labelled cysteine peptide fold change” value (10 µM) was -0.00347 and the “probe-labelled cysteine peptide fold change” value (50 µM) was -0.183.
With “EIF2S2_P20042_302_LYFLQCETCHSR (UniProt P20042)” the “probe-labelled cysteine peptide fold change” value (10 µM) was 0.0321 and the “probe-labelled cysteine peptide fold change” value (50 µM) was 0.0618.
For “EIF3A_Q14152_478_HCDLQVR (UniProt Q14152)”, the “probe-labelled cysteine peptide fold change” value (10 µM) was 0.0221 and the “probe-labelled cysteine peptide fold change” value (50 µM) was -0.063.
In the case of “EGLN1_Q9GZT9_21_QYCELCGK (UniProt Q9GZT9)”, the “probe-labelled cysteine peptide fold change” value (10 µM) is reported as -0.111 and the “probe-labelled cysteine peptide fold change” value (50 µM) is reported as -0.00777.
“EIF1_P41567_94_KNICQFLVEIGLAK (UniProt P41567)” was tested, and the “probe-labelled cysteine peptide fold change” value (10 µM) was -0.379 and the “probe-labelled cysteine peptide fold change” value (50 µM) was -0.165.
In the case of “EEF2_P13639_728_RCLYASVLTAQPR (UniProt P13639)”, the “probe-labelled cysteine peptide fold change” value (10 µM) is reported as -0.16 and the “probe-labelled cysteine peptide fold change” value (50 µM) is reported as -0.103.
With “EHBP1L1_Q8N3D4_346_ETQAQACPQEGTEAHGAR (UniProt Q8N3D4)” the “probe-labelled cysteine peptide fold change” value (10 µM) was 0.0614 and the “probe-labelled cysteine peptide fold change” value (50 µM) was 0.108.
“EIF2S1_P05198_70_IGRNECVVVIRVDK (UniProt P05198)” was tested, and the “probe-labelled cysteine peptide fold change” value (10 µM) was -0.393 and the “probe-labelled cysteine peptide fold change” value (50 µM) was -0.163.
With “EEF1A2_Q05639_326_GNVCGDSK (UniProt Q05639)” the “probe-labelled cysteine peptide fold change” value (10 µM) was -0.132 and the “probe-labelled cysteine peptide fold change” value (50 µM) was -0.176.
“ECM1_Q16610_426_VTPNLMGHLCGNQR (UniProt Q16610)” was tested, and the “probe-labelled cysteine peptide fold change” value (10 µM) was 0.0595 and the “probe-labelled cysteine peptide fold change” value (50 µM) was 0.088.
With “EIF2A_Q9BY44_377_LISKPVASDSTYFAWCPDGEHILTATCAPR (UniProt Q9BY44)” the “probe-labelled cysteine peptide fold change” value (10 µM) was -0.14 and the “probe-labelled cysteine peptide fold change” value (50 µM) was 0.0907.
“EEF2_P13639_557_SDPMVQCIIEESGEHIIAGAGELHLEICLK (UniProt P13639)” was tested, and the “probe-labelled cysteine peptide fold change” value (10 µM) was -0.0687 and the “probe-labelled cysteine peptide fold change” value (50 µM) was -0.13.
In the case of “EEF1A1_P68104_234_DGNASGTTLLEALDCILPPTRPTDKPLRLPLQDVYK (UniProt P68104)”, the “probe-labelled cysteine peptide fold change” value (10 µM) is reported as -0.378 and the “probe-labelled cysteine peptide fold change” value (50 µM) is reported as -0.423.
With “EIF1AY_O14602_51_LEALCFDGVKR (UniProt O14602)” the “probe-labelled cysteine peptide fold change” value (10 µM) was -0.122 and the “probe-labelled cysteine peptide fold change” value (50 µM) was 0.0628.
For “ECH1_Q13011_159_CPKPVIAAVHGGCIGGGVDLVTACDIR (UniProt Q13011)”, the “probe-labelled cysteine peptide fold change” value (10 µM) was -0.0604 and the “probe-labelled cysteine peptide fold change” value (50 µM) was -0.0424.
In the case of “EIF2S2_P20042_226_TSFVNFTDICK (UniProt P20042)”, the “probe-labelled cysteine peptide fold change” value (10 µM) is reported as -0.0942 and the “probe-labelled cysteine peptide fold change” value (50 µM) is reported as 0.0811.
For “ECT2_Q9H8V3_796_HVANTICK (UniProt Q9H8V3)”, the “probe-labelled cysteine peptide fold change” value (10 µM) was 0.106 and the “probe-labelled cysteine peptide fold change” value (50 µM) was 0.0725.
With “EEF1A1_P68104_234_DGNASGTTLLEALDCILPPTR (UniProt P68104)” the “probe-labelled cysteine peptide fold change” value (10 µM) was -0.244 and the “probe-labelled cysteine peptide fold change” value (50 µM) was -0.204.
“ECH1_Q13011_187_YCAQDAFFQVK (UniProt Q13011)” was tested, and the “probe-labelled cysteine peptide fold change” value (10 µM) was 0.0159 and the “probe-labelled cysteine peptide fold change” value (50 µM) was 0.0683.
In the case of “EGFL7_Q9UHF1_267+269_IDSLSEQISFLEEQLGSCSCK (UniProt Q9UHF1)”, the “probe-labelled cysteine peptide fold change” value (10 µM) is reported as 0.102 and the “probe-labelled cysteine peptide fold change” value (50 µM) is reported as -0.0497.
With “ECH1_Q13011_159+171+182_CPKPVIAAVHGGCIGGGVDLVTACDIR (UniProt Q13011)” the “probe-labelled cysteine peptide fold change” value (10 µM) was 0.106 and the “probe-labelled cysteine peptide fold change” value (50 µM) was 0.113.
With “EEF2_P13639_536+557_SDPMVQCIIEESGEHIIAGAGELHLEICLK (UniProt P13639)” the “probe-labelled cysteine peptide fold change” value (10 µM) was -0.00604 and the “probe-labelled cysteine peptide fold change” value (50 µM) was -0.0746.
For “ECPAS_Q5VYK3_602_MCLAHSAGVVPTSQSLADMQDHAPAIGR (UniProt Q5VYK3)”, the “probe-labelled cysteine peptide fold change” value (10 µM) was -0.316 and the “probe-labelled cysteine peptide fold change” value (50 µM) was -0.0584.
For “EEF1A1P5_Q5VTE0_363+370_NDPPMEAAGFTAQVIILNHPGQISAGYAPVLDCHMAHIACK (UniProt Q5VTE0)”, the “probe-labelled cysteine peptide fold change” value (10 µM) was -0.133 and the “probe-labelled cysteine peptide fold change” value (50 µM) was -0.214.
With “EIF1B_O60739_94_NICQFLLEVGIVK (UniProt O60739)” the “probe-labelled cysteine peptide fold change” value (10 µM) was -0.126 and the “probe-labelled cysteine peptide fold change” value (50 µM) was 0.0426.
For “EEF1A1_P68104_234_KDGNASGTTLLEALDCILPPTRPTDK (UniProt P68104)”, the “probe-labelled cysteine peptide fold change” value (10 µM) was -0.0722 and the “probe-labelled cysteine peptide fold change” value (50 µM) was -0.115.
With “EDEM2_Q9BV94_408_VECGFATIK (UniProt Q9BV94)” the “probe-labelled cysteine peptide fold change” value (10 µM) was -0.02 and the “probe-labelled cysteine peptide fold change” value (50 µM) was 0.0494.
With “EFEMP1_Q12805_70_CVNHYGGYLCLPK (UniProt Q12805)” the “probe-labelled cysteine peptide fold change” value (10 µM) was 0.26 and the “probe-labelled cysteine peptide fold change” value (50 µM) was 0.0934.
In the case of “EIF2AK2_P19525_121_LTVNYEQCASGVHGPEGFHYK (UniProt P19525)”, the “probe-labelled cysteine peptide fold change” value (10 µM) is reported as 0.0635 and the “probe-labelled cysteine peptide fold change” value (50 µM) is reported as -0.00194.
For “EEF1E1_O43324_147_WFCHIQHYPGIR (UniProt O43324)”, the “probe-labelled cysteine peptide fold change” value (10 µM) was 0.0691 and the “probe-labelled cysteine peptide fold change” value (50 µM) was 0.195.
“EEF1D_P29692_247_KLQIQCVVEDDKVGTDLLEEEITK (UniProt P29692)” was tested, and the “probe-labelled cysteine peptide fold change” value (10 µM) was -0.0807 and the “probe-labelled cysteine peptide fold change” value (50 µM) was -0.177.
